Four molecules from article PMC9983901 can be followed below.

Chains of the proteins cited; added tags and fusions are not shown. Lines headed by an entry give the natural chain unless they say otherwise; changes in a name come on top.
UniProt Q7JKT6: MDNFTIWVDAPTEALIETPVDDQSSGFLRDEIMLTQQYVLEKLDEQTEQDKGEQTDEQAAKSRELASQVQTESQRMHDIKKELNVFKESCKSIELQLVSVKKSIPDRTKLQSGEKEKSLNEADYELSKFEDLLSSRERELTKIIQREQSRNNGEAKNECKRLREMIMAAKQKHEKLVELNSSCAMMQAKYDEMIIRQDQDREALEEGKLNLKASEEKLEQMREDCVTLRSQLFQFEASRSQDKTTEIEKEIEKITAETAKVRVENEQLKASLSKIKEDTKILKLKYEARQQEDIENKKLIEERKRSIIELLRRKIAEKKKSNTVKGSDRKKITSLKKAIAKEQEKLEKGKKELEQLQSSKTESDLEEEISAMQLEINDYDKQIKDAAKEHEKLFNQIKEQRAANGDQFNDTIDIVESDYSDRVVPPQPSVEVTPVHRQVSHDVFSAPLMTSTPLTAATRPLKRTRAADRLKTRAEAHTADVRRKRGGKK
UniProt O76388: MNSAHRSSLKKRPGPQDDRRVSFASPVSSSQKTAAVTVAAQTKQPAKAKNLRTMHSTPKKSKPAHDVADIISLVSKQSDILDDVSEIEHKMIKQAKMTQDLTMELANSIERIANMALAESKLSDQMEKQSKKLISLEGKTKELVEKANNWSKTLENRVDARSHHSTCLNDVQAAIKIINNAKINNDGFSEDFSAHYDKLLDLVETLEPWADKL

For assay [1], the target named is SYP-1 full length (Gal4 DNA binding domain fusion) (C. elegans) (UniProt Q7JKT6). Description: two-hybrid; GRAS-1 constructs in pVV213 (activation domain), SYP constructs in pVV212 (Gal4 DNA binding domain); strains mated on YPD, selected on SC Leu- Trp-.
Assay [2] deals with SYP-2 full length (Gal4 DNA binding domain fusion) (C. elegans) (UniProt O76388). The description is as above.
Assay [3] concerns the target SYP-3 ΔC (Gal4 DNA binding domain fusion) (C. elegans). Described as above.
Assay [4] deals with SYP-4 ΔN (Gal4 DNA binding domain fusion) (C. elegans). Described as above.
For a further assay, the target named is SYP-2::GFP (C. elegans) (UniProt O76388). Description: co-IP; immunoprecipitation with a GFP antibody from whole worm lysates (gras-1::gfp, syp-2::gfp, wild type); Western blot with anti-SYP-3. (Immunoblotting shows a protein as a band on a membrane.)

No constants are given. Whether binding was seen depends on the method and setting. For part of these data: Binding can be weak; no strength is given. For part of these data: Sequences can lack the tags named with a protein. For part of these data: In cells and extracts the contact can be indirect.

B1: GRAS-1 ΔCt^1-163 (domain or fragment, UniProt Q93654 1-163)
chain: MDHIDAHSAVSTSSSSSKYDTPDDNISEQRLLCDAKEEYPLNDYLFDGINQESAQRSLLLCRQTFETSFGFALQSYVFKRTSSNSYERITYVDYVSADSPADRCGITRGDMVIAVNEKSVVTASHAEIVESIAQCLQVSLVLVFKDVARIVELSMRSIQLRFM
For B1, the binding result in assay [1] and in assay [2] was “binds weakly” each time.

B2: GRAS-1 full length (activation domain fusion) (protein, UniProt Q93654 1-245)
chain: MDHIDAHSAVSTSSSSSKYDTPDDNISEQRLLCDAKEEYPLNDYLFDGINQESAQRSLLLCRQTFETSFGFALQSYVFKRTSSNSYERITYVDYVSADSPADRCGITRGDMVIAVNEKSVVTASHAEIVESIAQCLQVSLVLVFKDVARIVELSMRSIQLRFMLDAKIRELRMLEKTEEDLQALYDDEHGNEEEDESLESTLYELDEELKNVQNPQEKEANGTDYRHLIRINSSTSVGTPQVTRL
B2: the binding entry in assay [1] was “binds weakly”; in assay [2], “binds weakly”; in assay [3] it was “no binding”; in assay [4], “no binding”.

B3: GRAS-1 ΔNt^69-245 (domain or fragment, UniProt Q93654 69-245)
chain: FGFALQSYVFKRTSSNSYERITYVDYVSADSPADRCGITRGDMVIAVNEKSVVTASHAEIVESIAQCLQVSLVLVFKDVARIVELSMRSIQLRFMLDAKIRELRMLEKTEEDLQALYDDEHGNEEEDESLESTLYELDEELKNVQNPQEKEANGTDYRHLIRINSSTSVGTPQVTRL
B3: the binding entry in assay [1] and in assay [2] was “no binding” in each case.

B4: SYP-3 (protein, UniProt O62238 1-224)
chain: MNFEKLVSQAVNGDRFKIFCGQLTEFTNSLAGEREAIEKGMRQIETQQLEAETSFTERIAEDRVKCAAQRESLERQLQDLTATDNKLSEQKRDWEERQEKAYDELMSYLENEDVDSAGTQFGDHFNSLIKSMNNLSHDSMNGQFNSLKNNLDELNIEKKQLEVAIADQSSTISEMIPSLRPTCGATYKERNTLRIIFHYQVAKLRSEYQKCRLQEEALKARLST
B4: in the assay with SYP-2::GFP (C. elegans), the binding result was “binds”.
